Values from PubChem BioAssay AID652272 (Drosophila RNAi Screening Center, 2013)
The deposit covers about 21,000 reagents; shown is a random part of those that have a named target and a result. Of all reagents, 503 (2.4%) got an active call. 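Raw plate light values, not normalised; calls rest on replicate z-scores that were not deposited; hits include reporter decreases as well as increases.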 A number with no mark means an inactive call. Reagent sequences are not shown. Not stated in the record: the amount of reagent, the time to read-out.

Screen: 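Genes whose knock-down decreases or increases Hedgehog reporter output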 (primary screen)
Cells: Drosophila clone 8 (Cl8) cells
Reagents: long dsRNA against Drosophila genes
Read-out: 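Firefly light from a Hedgehog-responsive ptc promoter reporter and Renilla reference light, both read on a plate reader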
Reading the numbers: firefly Hh reporter signal: higher = more ptc reporter light; Renilla reference signal: higher = more Renilla control light
Rule for the call: 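Hit when the z-score averaged over two replicates is under -2 or over +3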
Meaning of the calls: active = hit: reporter lowered or raised; inactive = not a hit

target | amplicon | firefly Hh reporter signal, replicate 1 | firefly Hh reporter signal, replicate 2 | firefly Hh reporter signal, replicate 3 | Renilla reference signal, replicate 1 | Renilla reference signal, replicate 2
CheB93a | DRSC15044 | 5.27e5 | 1.69e5 | – | 30004 | 3168
Cox17 | DRSC20145 | 1.55e5 | 3.15e5 | – | 4043 | 12182
CG14841 | DRSC14965 | 1.05e5 | 97579 | – | 4317 | 2873
Orco | DRSC12358 | 79114 | 1.33e5 | – | 3264 | 3526
LS2 | DRSC04340 | 79383 | 61735 | – | 1424 | 5037
Obp57c | DRSC06384 | 89330 | 42235 | – | 2283 | 1696
flap | DRSC03918 | 99668 | 3.13e5 | – | 2925 | 13372
flap | DRSC04087 | 49554 | 58089 | – | 2520 | 3097
Nf1 | DRSC16758 | 98233 | 77779 | – | 2277 | 2119
CG3376 | DRSC04362 | 1.17e5 | 89208 | – | 3440 | 3488
eIF2D | DRSC13916 | 56185 | 2.67e5 | – | 14264 | 6628
Map205 | DRSC16732 | 28978 | 33568 | – | 1101 | 1596
CG17803 | DRSC15275 | 7.64e5 | 9.00e5 | 1.56e5 | 46571 | 5895
Elal | DRSC16662 | 1.65e5 | 72322 | – | 6929 | 2800
Tace | DRSC16340 | 91217 | 86960 | – | 1559 | 2493
CG4763 | DRSC04009 | 1.23e5 | 1.43e5 | – | 3244 | 7677
CG4763 | DRSC04487 | 77957 | 69850 | – | 1715 | 6912
Cpr65Ay | DRSC08796 | 1.23e5 | 1.92e5 | – | 3424 | 7417
Cda9 | DRSC06593 | 57467 | 34070 | – | 1449 | 2314
elg1 | DRSC10229 | 39929 | 58864 | – | 1893 | 2631
CrebB | DRSC20232 | 67587 | 1.24e5 | – | 2102 | 6498
CG15432 | DRSC00447 | 73832 | 36091 | – | 1677 | 4118
Sgs1 | DRSC00787 | 1.43e5 | 82971 | – | 3607 | 7864
Sgs1 | DRSC00848 | 7.53e5 | 2.82e5 | – | 34739 | 9792
Cpr50Cb | DRSC06975 | 92397 | 64840 | – | 2233 | 5746
CG12942 | DRSC06253 | 58152 | 59032 | – | 2283 | 2141
Miox | DRSC10747 | 45415 | 57073 | 43064 | 5223 | 3101
LysX | DRSC08678 | 89347 | 54208 | – | 2579 | 4331
CG14427 | DRSC17921 | 93778 | 2.46e5 | – | 3512 | 10029
GEFmeso | DRSC06748 | 90486 | 78316 | – | 3757 | 3415
GEFmeso | DRSC06940 | 1.05e5 | 53120 | – | 2800 | 4057
CG6511 | DRSC10656 | 36659 | 38167 | – | 3568 | 3033
Letm1 | DRSC04476 | 65693 | 45367 | – | 2273 | 1529
CG15362 | DRSC00392 | 1.12e5 | 1.25e5 | – | 2742 | 2444
Cpr64Ac | DRSC08462 | 79140 | 53543 | – | 2228 | 3955
CG3650 | DRSC04401 | 73900 | 47988 | – | 1659 | 3434
CG11151 | DRSC19387 | 95001 | 2.34e5 | – | 3653 | 12458
Muc68E | DRSC09146 | 8.29e5 | 2.02e5 | 1.06e5 | 5187 | 8261
Pxt | DRSC17040 | 5.77e5 | 95057 | – | 27146 | 3236

Entries listed so far whose target name begins with O or o:
target | amplicon | firefly Hh reporter signal, replicate 1 | firefly Hh reporter signal, replicate 2 | firefly Hh reporter signal, replicate 3 | Renilla reference signal, replicate 1 | Renilla reference signal, replicate 2
Orco | DRSC12358 | 79114 | 1.33e5 | – | 3264 | 3526
Obp57c | DRSC06384 | 89330 | 42235 | – | 2283 | 1696
